The text below walks through data of publication PMC6245796.

Sequences of proteins named here, by UniProt entry; tags and fusion partners are left off.
UniProt Q9BUL8: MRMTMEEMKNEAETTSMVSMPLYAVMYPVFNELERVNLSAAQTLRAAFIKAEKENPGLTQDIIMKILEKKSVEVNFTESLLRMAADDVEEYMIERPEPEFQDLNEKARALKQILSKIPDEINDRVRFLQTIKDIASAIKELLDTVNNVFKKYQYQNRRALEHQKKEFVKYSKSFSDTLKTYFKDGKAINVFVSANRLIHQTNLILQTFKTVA
UniProt Q96CV9: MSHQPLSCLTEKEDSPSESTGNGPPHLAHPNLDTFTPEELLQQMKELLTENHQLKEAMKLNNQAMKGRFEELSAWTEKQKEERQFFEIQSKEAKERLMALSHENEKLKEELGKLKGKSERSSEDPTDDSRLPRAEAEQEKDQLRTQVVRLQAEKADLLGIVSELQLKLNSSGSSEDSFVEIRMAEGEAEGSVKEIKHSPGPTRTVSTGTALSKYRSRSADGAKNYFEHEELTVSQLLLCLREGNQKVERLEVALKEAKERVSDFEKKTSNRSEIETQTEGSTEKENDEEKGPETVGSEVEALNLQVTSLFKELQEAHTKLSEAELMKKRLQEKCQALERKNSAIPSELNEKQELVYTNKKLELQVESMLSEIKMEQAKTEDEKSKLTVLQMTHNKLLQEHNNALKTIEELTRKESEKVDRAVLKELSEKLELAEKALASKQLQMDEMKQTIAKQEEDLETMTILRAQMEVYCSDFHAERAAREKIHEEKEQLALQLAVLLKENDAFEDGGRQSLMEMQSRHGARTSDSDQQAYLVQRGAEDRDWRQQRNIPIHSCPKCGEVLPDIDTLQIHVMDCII
UniProt Q9UBN7: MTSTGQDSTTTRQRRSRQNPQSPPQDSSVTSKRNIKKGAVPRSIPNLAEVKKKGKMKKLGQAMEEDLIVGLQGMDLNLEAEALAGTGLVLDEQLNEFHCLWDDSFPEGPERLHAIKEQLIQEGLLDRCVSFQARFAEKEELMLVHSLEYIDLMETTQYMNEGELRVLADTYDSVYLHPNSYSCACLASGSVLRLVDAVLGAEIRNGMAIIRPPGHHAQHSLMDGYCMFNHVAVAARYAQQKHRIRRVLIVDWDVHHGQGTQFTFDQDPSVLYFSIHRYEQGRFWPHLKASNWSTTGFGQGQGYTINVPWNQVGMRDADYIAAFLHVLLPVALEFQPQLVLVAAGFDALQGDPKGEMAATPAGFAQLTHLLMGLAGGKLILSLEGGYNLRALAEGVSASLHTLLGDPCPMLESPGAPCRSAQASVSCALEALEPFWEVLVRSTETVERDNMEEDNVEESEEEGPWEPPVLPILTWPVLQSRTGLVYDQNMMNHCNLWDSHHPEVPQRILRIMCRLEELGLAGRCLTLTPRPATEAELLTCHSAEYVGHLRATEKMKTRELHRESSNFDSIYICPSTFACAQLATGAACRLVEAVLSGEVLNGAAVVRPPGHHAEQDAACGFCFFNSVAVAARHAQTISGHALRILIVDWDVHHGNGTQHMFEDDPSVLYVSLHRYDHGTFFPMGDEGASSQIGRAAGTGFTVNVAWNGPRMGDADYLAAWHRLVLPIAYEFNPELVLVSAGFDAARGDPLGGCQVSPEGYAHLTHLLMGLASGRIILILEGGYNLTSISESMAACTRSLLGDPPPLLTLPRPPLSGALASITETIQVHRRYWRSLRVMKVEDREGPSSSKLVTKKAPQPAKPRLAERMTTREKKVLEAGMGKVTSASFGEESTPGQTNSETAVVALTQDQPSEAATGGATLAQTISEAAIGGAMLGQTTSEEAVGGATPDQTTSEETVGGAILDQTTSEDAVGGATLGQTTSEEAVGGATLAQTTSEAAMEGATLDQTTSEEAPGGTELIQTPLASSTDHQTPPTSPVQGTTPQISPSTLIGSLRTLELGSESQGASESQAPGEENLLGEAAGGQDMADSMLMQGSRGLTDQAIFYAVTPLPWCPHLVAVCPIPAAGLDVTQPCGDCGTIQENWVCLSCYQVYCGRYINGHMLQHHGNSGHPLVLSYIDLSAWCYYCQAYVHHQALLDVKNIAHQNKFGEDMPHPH

These are yes or no findings as the source states them, for the method shown. In cells and extracts the contact can be indirect. Some results given as binding are weak or reduced against the parent protein; the word gives no strength. For part of these data: Tags and fused reporters may be left off the sequences shown.

The target of assay [1] is FLAG-PDCD10 (UniProt Q9BUL8). Put plainly: co-IP; extracts of HEK293T cells co-transfected with one FLAG-tagged and one HA-tagged protein, 24 hours after transfection; low salt lysis buffer or RIPA buffer, 4 hours at 4°C, anti-FLAG or anti-HA agarose.
For assay [2], the target named is FLAG-PDCD10 (UniProt Q9BUL8). Put plainly: co-IP; extracts of HEK293T cells transfected with HA-p62 and FLAG-PDCD10 along with empty vector or Myc-TRIM59.
Assay [3] deals with T1, TRIM59, endogenous in MCF7 cells (human (endogenous in MCF7)) (UniProt Q8IWR1).
T1 sequence: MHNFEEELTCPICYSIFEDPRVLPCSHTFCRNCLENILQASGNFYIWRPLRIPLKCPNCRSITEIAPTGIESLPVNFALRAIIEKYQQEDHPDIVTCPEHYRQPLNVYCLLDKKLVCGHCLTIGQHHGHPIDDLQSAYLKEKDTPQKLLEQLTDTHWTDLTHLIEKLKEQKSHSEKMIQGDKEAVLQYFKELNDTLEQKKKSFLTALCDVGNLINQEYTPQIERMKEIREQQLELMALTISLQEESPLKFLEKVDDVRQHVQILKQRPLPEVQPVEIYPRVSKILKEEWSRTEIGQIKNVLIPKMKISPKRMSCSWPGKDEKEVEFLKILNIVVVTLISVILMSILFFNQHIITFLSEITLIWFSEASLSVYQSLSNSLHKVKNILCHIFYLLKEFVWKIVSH
Kind of assay: co-IP; endogenous proteins, extracts of MCF7 cells; IP with anti-TRIM59 antibody, blot with anti-PDCD10 antibody; IgG as negative control.

A further assay deals with FLAG-p62 (UniProt Q13501). Kind of assay: co-IP; extracts of HEK293T cells co-transfected with one FLAG-tagged and one HA-tagged protein, 24 hours after transfection; low salt lysis buffer or RIPA buffer, 4 hours at 4°C, anti-FLAG or anti-HA agarose.
Assay [4] concerns the target FLAG-PDCD10 (UniProt Q9BUL8). Described as above. The source holds these as a separate data set.
The target of assay [5] is PDCD10, endogenous in MCF7 and MDA-MB-231 cells (human (endogenous in MCF7 and MDA-MB-231)) (UniProt Q9BUL8). Kind of assay: co-IP; endogenous proteins, extracts of WT or TRIM59 OE MDA-MB-231 cells and WT or TRIM59 KO MCF7 cells, blot for RNFT1, IgG controls; cells treated with BafA1 to maintain PDCD10 levels.

On to HA-OPTN (from UniProt Q96CV9 1-577), for which the binding result with FLAG-PDCD10 [1] is recorded as “no binding”.

In the case of HA-p62 (from UniProt Q13501 1-440), the binding result in the assay with FLAG-PDCD10 [2] and with FLAG-PDCD10 [1] was “binds” in each case.

For HA-HDAC6 (from UniProt Q9UBN7 1-1215), the binding result with FLAG-PDCD10 [1] is “no binding”.

On to “PDCD10, endogenous in MCF7 and MDA-MB-231 cells (from UniProt Q9BUL8 1-212)”, for which, in assay [3], the binding result is given as “binds”.

B1: HA-TRIM59 full-length WT (FL) (protein, UniProt Q8IWR1 1-403)
chain: MHNFEEELTCPICYSIFEDPRVLPCSHTFCRNCLENILQASGNFYIWRPLRIPLKCPNCRSITEIAPTGIESLPVNFALRAIIEKYQQEDHPDIVTCPEHYRQPLNVYCLLDKKLVCGHCLTIGQHHGHPIDDLQSAYLKEKDTPQKLLEQLTDTHWTDLTHLIEKLKEQKSHSEKMIQGDKEAVLQYFKELNDTLEQKKKSFLTALCDVGNLINQEYTPQIERMKEIREQQLELMALTISLQEESPLKFLEKVDDVRQHVQILKQRPLPEVQPVEIYPRVSKILKEEWSRTEIGQIKNVLIPKMKISPKRMSCSWPGKDEKEVEFLKILNIVVVTLISVILMSILFFNQHIITFLSEITLIWFSEASLSVYQSLSNSLHKVKNILCHIFYLLKEFVWKIVSH
In the case of B1, the results for the binding result in the assay with FLAG-p62 and in the assay with FLAG-PDCD10 [4] were “no binding” and “binds”, respectively.

B2: HA-NDP52 (protein, UniProt Q13137 1-446)
chain: MEETIKDPPTSAVLLDHCHFSQVIFNSVEKFYIPGGDVTCHYTFTQHFIPRRKDWIGIFRVGWKTTREYYTFMWVTLPIDLNNKSAKQQEVQFKAYYLPKDDEYYQFCYVDEDGVVRGASIPFQFRPENEEDILVVTTQGEVEEIEQHNKELCKENQELKDSCISLQKQNSDMQAELQKKQEELETLQSINKKLELKVKEQKDYWETELLQLKEQNQKMSSENEKMGIRVDQLQAQLSTQEKEMEKLVQGDQDKTEQLEQLKKENDHLFLSLTEQRKDQKKLEQTVEQMKQNETTAMKKQQELMDENFDLSKRLSENEIICNALQRQKERLEGENDLLKRENSRLLSYMGLDFNSLPYQVPTSDEGGARQNPGLAYGNPYSGIQESSSPSPLSIKKCPICKADDICDHTLEQQQMQPLCFNCPICDKIFPATEKQIFEDHVFCHSL
Turning to B2, in the assay with FLAG-PDCD10 [4], the binding result is “no binding”.

B3: RNFT1, endogenous in MCF7 and MDA-MB-231 cells (protein, UniProt Q5M7Z0 1-435)
chain: MPLFLLSLPTPPSASGHERRQRPEAKTSGSEKKYLRAMQANRSQLHSPPGTGSSEDASTPQCVHTRLTGEGSCPHSGDVHIQINSIPKECAENASSRNIRSGVHSCAHGCVHSRLRGHSHSEARLTDDTAAESGDHGSSSFSEFRYLFKWLQKSLPYILILSVKLVMQHITGISLGIGLLTTFMYANKSIVNQVFLRERSSKIQCAWLLVFLAGSSVLLYYTFHSQSLYYSLIFLNPTLDHLSFWEVFWIVGITDFILKFFFMGLKCLILLVPSFIMPFKSKGYWYMLLEELCQYYRTFVPIPVWFRYLISYGEFGNVTRWSLGILLALLYLILKLLEFFGHLRTFRQVLRIFFTQPSYGVAASKRQCSDVDDICSICQAEFQKPILLICQHIFCEECMTLWFNREKTCPLCRTVISDHINKWKDGATSSHLQIY
B3: the binding result in assay [5] was “binds”.
